According to article PMC5940738:
These are yes or no findings as the source states them, for the method shown. Binding seen in cells or lysates may run through a third protein. Some results given as binding are weak or reduced against the parent protein; the word gives no strength. Tags and fused reporters may be left off the sequences shown. Each block holds one molecule with its values, some of them ahead of it.

Protein sequences, listed by entry. Tags and fused reporters are not part of them. Lines headed by an entry give the natural chain unless they say otherwise; changes in a name come on top. Residues count along the entry.
UniProt Q28021: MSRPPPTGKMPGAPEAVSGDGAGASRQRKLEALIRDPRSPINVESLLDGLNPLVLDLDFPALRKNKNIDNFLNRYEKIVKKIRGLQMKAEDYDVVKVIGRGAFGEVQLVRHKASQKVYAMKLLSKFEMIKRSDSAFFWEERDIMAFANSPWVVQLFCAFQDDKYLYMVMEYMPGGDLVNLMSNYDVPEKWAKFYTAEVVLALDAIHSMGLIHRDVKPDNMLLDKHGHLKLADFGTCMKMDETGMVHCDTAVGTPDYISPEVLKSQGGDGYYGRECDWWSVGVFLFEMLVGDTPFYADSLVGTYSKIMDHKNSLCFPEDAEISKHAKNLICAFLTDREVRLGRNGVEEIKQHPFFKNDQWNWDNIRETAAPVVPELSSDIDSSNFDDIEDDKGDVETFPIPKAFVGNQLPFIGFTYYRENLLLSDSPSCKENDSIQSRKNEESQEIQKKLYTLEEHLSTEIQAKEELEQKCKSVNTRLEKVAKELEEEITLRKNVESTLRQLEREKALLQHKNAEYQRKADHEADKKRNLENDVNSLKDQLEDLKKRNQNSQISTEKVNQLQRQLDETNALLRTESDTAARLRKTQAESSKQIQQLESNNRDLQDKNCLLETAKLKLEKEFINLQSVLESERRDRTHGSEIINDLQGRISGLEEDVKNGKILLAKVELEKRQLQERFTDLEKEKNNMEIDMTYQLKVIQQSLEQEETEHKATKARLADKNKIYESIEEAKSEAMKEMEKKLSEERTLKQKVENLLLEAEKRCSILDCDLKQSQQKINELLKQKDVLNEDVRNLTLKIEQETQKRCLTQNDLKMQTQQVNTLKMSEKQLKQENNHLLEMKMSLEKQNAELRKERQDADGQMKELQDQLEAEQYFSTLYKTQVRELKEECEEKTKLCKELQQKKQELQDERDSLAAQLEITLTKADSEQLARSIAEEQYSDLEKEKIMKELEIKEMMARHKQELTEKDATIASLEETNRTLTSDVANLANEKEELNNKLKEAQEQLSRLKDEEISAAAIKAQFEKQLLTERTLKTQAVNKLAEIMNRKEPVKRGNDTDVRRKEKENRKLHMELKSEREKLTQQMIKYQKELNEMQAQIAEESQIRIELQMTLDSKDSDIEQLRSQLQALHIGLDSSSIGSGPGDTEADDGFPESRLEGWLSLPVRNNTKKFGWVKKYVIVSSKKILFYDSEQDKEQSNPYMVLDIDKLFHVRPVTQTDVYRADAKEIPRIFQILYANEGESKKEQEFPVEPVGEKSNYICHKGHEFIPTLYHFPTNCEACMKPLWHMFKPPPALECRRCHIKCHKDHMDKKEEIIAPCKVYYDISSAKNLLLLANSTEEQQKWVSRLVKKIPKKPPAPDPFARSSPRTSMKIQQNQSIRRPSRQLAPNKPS
UniProt Q3UFB7, residues 34-799: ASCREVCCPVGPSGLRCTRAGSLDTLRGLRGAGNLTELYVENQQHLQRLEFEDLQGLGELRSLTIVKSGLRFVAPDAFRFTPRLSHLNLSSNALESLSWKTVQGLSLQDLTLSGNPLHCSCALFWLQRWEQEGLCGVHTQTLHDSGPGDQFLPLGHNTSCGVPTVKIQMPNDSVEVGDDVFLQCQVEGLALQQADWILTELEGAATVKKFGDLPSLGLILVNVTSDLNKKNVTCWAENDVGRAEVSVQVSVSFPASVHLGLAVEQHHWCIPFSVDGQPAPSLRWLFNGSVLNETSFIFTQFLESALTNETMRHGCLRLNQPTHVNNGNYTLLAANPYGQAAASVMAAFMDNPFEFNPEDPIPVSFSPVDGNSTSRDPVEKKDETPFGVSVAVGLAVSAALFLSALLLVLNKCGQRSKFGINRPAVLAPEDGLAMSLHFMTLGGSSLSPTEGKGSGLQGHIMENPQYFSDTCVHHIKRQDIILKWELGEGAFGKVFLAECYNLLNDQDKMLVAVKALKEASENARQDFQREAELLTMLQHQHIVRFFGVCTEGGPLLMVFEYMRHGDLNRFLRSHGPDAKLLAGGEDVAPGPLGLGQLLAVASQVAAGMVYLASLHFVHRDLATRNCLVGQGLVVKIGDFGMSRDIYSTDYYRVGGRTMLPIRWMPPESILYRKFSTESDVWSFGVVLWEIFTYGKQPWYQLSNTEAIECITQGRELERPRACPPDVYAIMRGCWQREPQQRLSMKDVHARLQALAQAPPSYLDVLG

Columns and labels:
Linx-V5 (mouse) = biological target: T1, Linx-V5 (mouse) (UniProt Q5RKR3); assay: co-IP; lysates of N1E-115 cells transfected with control or Linx-V5 vector immunoprecipitated with V5 antibody, Western blot
T1 sequence: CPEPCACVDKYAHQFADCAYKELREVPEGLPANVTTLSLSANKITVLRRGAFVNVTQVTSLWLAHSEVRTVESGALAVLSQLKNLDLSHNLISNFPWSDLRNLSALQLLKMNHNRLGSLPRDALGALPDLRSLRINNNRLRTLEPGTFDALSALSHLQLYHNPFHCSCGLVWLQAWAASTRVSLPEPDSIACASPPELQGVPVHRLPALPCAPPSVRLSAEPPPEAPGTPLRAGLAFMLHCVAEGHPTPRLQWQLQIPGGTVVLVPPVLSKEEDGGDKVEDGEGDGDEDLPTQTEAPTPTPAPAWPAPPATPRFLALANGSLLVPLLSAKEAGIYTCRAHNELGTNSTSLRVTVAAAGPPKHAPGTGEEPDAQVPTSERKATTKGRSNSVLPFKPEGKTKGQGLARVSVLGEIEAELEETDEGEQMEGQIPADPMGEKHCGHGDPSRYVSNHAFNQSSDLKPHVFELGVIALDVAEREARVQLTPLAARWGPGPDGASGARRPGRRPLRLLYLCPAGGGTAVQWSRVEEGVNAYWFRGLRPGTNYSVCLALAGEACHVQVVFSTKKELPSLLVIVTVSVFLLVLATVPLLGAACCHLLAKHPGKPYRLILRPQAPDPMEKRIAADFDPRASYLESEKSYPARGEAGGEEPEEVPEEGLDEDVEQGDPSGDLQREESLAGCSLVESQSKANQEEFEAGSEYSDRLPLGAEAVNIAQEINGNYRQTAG

GFP-Rho-kinase = GFP-Rho-kinase (UniProt Q28021); assay: co-IP; 293FT cells transfected with Linx-SF and either GFP or GFP-Rho-kinase, IP with GFP antibody, Western blot

- binding (Linx-V5 (mouse)): binds
Molecule: TrkA in N1E-115 cells (from UniProt Q3UFB7 34-799) (receptor)

- binding (GFP-Rho-kinase): binds
B1: Linx-SF (mouse Linx fused with a streptavidin-Flag tag) (protein, UniProt Q5RKR3 20-745)
chain: T1 sequence
